{
  "source": "the supplement of paper PMC8256030",
  "note": "“And” between values parts separate entries of the source, which are not always exact repeats. Equal entries are not always repeated. The list shows a part of the results. Repeats in this data set agree poorly, so a single value says little.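 HEK293T cells were given each compound shortly before transfection with a reporter in which red mCherry is followed by the SARS-CoV-2 frameshift element and then GFP in the −1 frame, so GFP appears only after frameshifting.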",
  "data": [
    {"test_system": "SARS-CoV-2 -1 PRF reporter mCherry-FSE-GFP(-1)", "assay": "percent effect, decrease of GFP/mCherry ratio (-1 PRF reporter) relative to controls; higher = stronger frameshift inhibition", "settings": "10 µM; 24 h; HEK293T", "values": [
      {"molecule": "CCCNC(C)C(=O)Nc1c(C)csc1C(=O)OC", "note": "(configuration not stated) [Articaine]", "percent effect": "-7.49%"},
      {"molecule": "CC1(C)S[C@@H]2[C@H](NC(=O)[C@H](N)c3ccccc3)C(=O)N2[C@H]1C(=O)O", "note": "[ampicillin]", "percent effect": "-2.87%"},
      {"molecule": "C[C@]12CCC(=O)C=C1C=C[C@@H]1[C@@H]2CC[C@@]2(C)[C@H]1CC[C@@]21CCC(=O)O1", "note": "[Canrenone]", "percent effect": "-7.14%"},
      {"molecule": "Cc1ccc(S(=O)(=O)NC(=O)NC2CCCCC2)cc1N", "note": "[metahexamide]", "percent effect": "-3.64%"},
      {"molecule": "NC[C@H]1CC[C@H](C(=O)O)CC1", "note": "[tranexamic acid]", "percent effect": "-3%"},
      {"molecule": "CCCCCC(C)NCc1c(C)cc(C)cc1C", "note": "(configuration not stated) [trimexiline]", "percent effect": "4.62%"},
      {"molecule": "NS(=O)(=O)c1cc(Cl)c(Cl)c(S(N)(=O)=O)c1", "note": "[diclofenamide]", "percent effect": "-13.8%"},
      {"molecule": "C=C1CC[C@H](O)C/C1=C/C=C1\\CCC[C@]2(C)[C@@H]([C@H](C)/C=C/[C@H](C)C(C)C)CC[C@@H]12", "note": "[ergocalciferol]", "percent effect": "-23.8%"},
      {"molecule": "CCC(=O)O[C@@H](O[P@](=O)(CCCCc1ccccc1)CC(=O)N1C[C@H](C2CCCCC2)C[C@H]1C(=O)O)C(C)C", "note": "[Fosinopril]", "percent effect": "10.6%"},
      {"molecule": "CCC(C)C(C(=O)OC1CC[N+](C)(C)CC1)c1ccccc1", "note": "(configuration not stated) [pentapiperium metilsulfate]", "percent effect": "-9.02%"},
      {"molecule": "C[C@@H]1C[C@H]2[C@@H]3CCC4=CC(=O)C=C[C@]4(C)[C@@]3(F)[C@@H](O)C[C@]2(C)[C@@]1(O)C(=O)CO", "note": "[dexamethasone]", "percent effect": "-0.53% and -9.85%"},
      {"molecule": "O=C(O)Cc1nn(Cc2ccc(Br)cc2F)c(=O)c2ccccc12", "note": "[ponalrestat]", "percent effect": "-1.69%"},
      {"molecule": "NC(=O)N1CCC(CC(=O)N2CCC([C@H]3c4ncc(Br)cc4CCc4cc(Cl)cc(Br)c43)CC2)CC1", "note": "[lonafarnib]", "percent effect": "-12%"},
      {"molecule": "CCn1cc(C(=O)O)c(=O)c2cc(F)c(N3CCN(C)CC3)cc21", "percent effect": "-2.65%"},
      {"molecule": "CC1CC(OC(=O)C(O)c2ccccc2)CC(C)(C)C1", "note": "(configuration not stated) [cyclandelate]", "percent effect": "-3.66%"},
      {"molecule": "Oc1ncnc2[nH]ncc12", "note": "[allopurinol]", "percent effect": "-2.01%"},
      {"molecule": "CN1[C@@H]2CC[C@H]1C[C@@H](OC(=O)c1c[nH]c3ccccc13)C2", "note": "[Tropisetron]", "percent effect": "-8.11%"}
    ]}
  ]
}
